{"source": "the supplement of paper PMC5407854", "about": "“Inhibitor of ppGalNAc-T3-mediated O-glycosylation blocks cancer cell invasiveness and lowers FGF23 levels” (eLife, 2017)", "key": {"ppGalNAc-T3 sensor": {"tested_on": "ppGalNAc-T3 sensor", "test": "T3 sensor activation Q score (MG/GFP ratio z-score vs DMSO controls) (SD units); higher = more sensor activation (inhibition of ppGalNAc-T3 glycosylation)", "conditions": "HEK293 sensor cells; 10 µM; 6 h", "procedure": "(§1)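 Cells were treated with compound at 10 uM for 6 h, then MG/GFP ratio was read by flow cytometry (10,000 cells per well, duplicate wells). Q = (R - R_neg)/SD_neg relative to DMSO vehicle controls; the signal rises when the glycosyltransferase is inhibited.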"}, "ppGalNAc-T2 sensor": {"tested_on": "ppGalNAc-T2 sensor", "test": "T2 sensor activation Q score (MG/GFP ratio z-score vs DMSO controls) (SD units); higher = more sensor activation (inhibition of ppGalNAc-T2 glycosylation)", "conditions": "HEK293 sensor cells; 10 µM; 6 h", "procedure": "as §1"}}, "note": "Some of the results follow. Most entries show no effect beyond the scatter of the controls."}
{"smiles": "O=S(=O)(Nc1cc(Cl)c(O)c(Br)c1)c1ccc(Cl)cc1", "values": [{"measurement": "T3 sensor activation Q score", "setting": "ppGalNAc-T3 sensor", "result": -0.385}, {"measurement": "T2 sensor activation Q score", "setting": "ppGalNAc-T2 sensor", "result": -1.78}]}
{"smiles": "Fc1cccc(-c2nc3cc(N4CCOCC4)c(N4CCOCC4)cc3[nH]2)c1", "values": [{"measurement": "T3 sensor activation Q score", "setting": "ppGalNAc-T3 sensor", "result": 0.025}, {"measurement": "T2 sensor activation Q score", "setting": "ppGalNAc-T2 sensor", "result": -1.02}]}
{"smiles": "COc1ccc(-c2nc3cc(C)ccc3o2)cc1N", "values": [{"measurement": "T3 sensor activation Q score", "setting": "ppGalNAc-T3 sensor", "result": 0.035}, {"measurement": "T2 sensor activation Q score", "setting": "ppGalNAc-T2 sensor", "result": -0.295}]}
{"smiles": "CC(=O)c1cc(F)c(N2CCN(C(=O)c3cc(F)c(F)cc3C)CC2)cc1C", "values": [{"measurement": "T3 sensor activation Q score", "setting": "ppGalNAc-T3 sensor", "result": 0.375}, {"measurement": "T2 sensor activation Q score", "setting": "ppGalNAc-T2 sensor", "result": -0.17}]}
{"smiles": "COc1ccc(-c2ncnn2-c2ccc([N+](=O)[O-])cc2)cc1", "values": [{"measurement": "T3 sensor activation Q score", "setting": "ppGalNAc-T3 sensor", "result": 0.725}, {"measurement": "T2 sensor activation Q score", "setting": "ppGalNAc-T2 sensor", "result": 0.915}]}
{"smiles": "Cc1ccc(C(=O)/C=C/c2cccc(F)c2)o1", "values": [{"measurement": "T3 sensor activation Q score", "setting": "ppGalNAc-T3 sensor", "result": 0.6}, {"measurement": "T2 sensor activation Q score", "setting": "ppGalNAc-T2 sensor", "result": 1.75}]}
{"smiles": "OCc1c(O)cnc2ccccc12", "values": [{"measurement": "T3 sensor activation Q score", "setting": "ppGalNAc-T3 sensor", "result": 2}, {"measurement": "T2 sensor activation Q score", "setting": "ppGalNAc-T2 sensor", "result": 0.455}]}
{"smiles": "Cc1cccc2oc(-c3cccc(NC(=O)c4ccccc4I)c3)nc12", "values": [{"measurement": "T3 sensor activation Q score", "setting": "ppGalNAc-T3 sensor", "result": -0.48}, {"measurement": "T2 sensor activation Q score", "setting": "ppGalNAc-T2 sensor", "result": -0.905}]}
{"smiles": "Cc1ccc(NCC(O)C(O)C(O)CO)cc1C", "note": "(stereo unspecified)", "values": [{"measurement": "T3 sensor activation Q score", "setting": "ppGalNAc-T3 sensor", "result": 1.16}, {"measurement": "T2 sensor activation Q score", "setting": "ppGalNAc-T2 sensor", "result": -0.025}]}
{"smiles": "Cc1ccc2c(c1)C(=O)C(=O)N2", "values": [{"measurement": "T3 sensor activation Q score", "setting": "ppGalNAc-T3 sensor", "result": 0.3}, {"measurement": "T2 sensor activation Q score", "setting": "ppGalNAc-T2 sensor", "result": -0.53}]}
{"smiles": "O=C(NN1C(=O)c2ccccc2C1=O)c1cccc(Br)c1", "values": [{"measurement": "T3 sensor activation Q score", "setting": "ppGalNAc-T3 sensor", "result": -0.025}, {"measurement": "T2 sensor activation Q score", "setting": "ppGalNAc-T2 sensor", "result": 0.31}]}
{"smiles": "c1ccc2c3c([nH]c2c1)CN(Cc1ccc2c(c1)OCO2)CC3", "values": [{"measurement": "T3 sensor activation Q score", "setting": "ppGalNAc-T3 sensor", "result": 0.27}, {"measurement": "T2 sensor activation Q score", "setting": "ppGalNAc-T2 sensor", "result": 0.505}]}
{"smiles": "COc1ccc(N2CCN(Cc3ccc(Br)s3)CC2)cc1", "values": [{"measurement": "T3 sensor activation Q score", "setting": "ppGalNAc-T3 sensor", "result": 0.025}, {"measurement": "T2 sensor activation Q score", "setting": "ppGalNAc-T2 sensor", "result": -0.01}]}
{"smiles": "O=C(Nc1ccc(Br)cc1)[C@@H]1C2C=CC(C2)[C@@H]1C(=O)O", "note": "(stereo partly specified)", "values": [{"measurement": "T3 sensor activation Q score", "setting": "ppGalNAc-T3 sensor", "result": -0.495}, {"measurement": "T2 sensor activation Q score", "setting": "ppGalNAc-T2 sensor", "result": -1.69}]}
{"smiles": "COc1cc(NS(=O)(=O)c2ccc(Br)cc2)c(OC)cc1Cl", "values": [{"measurement": "T3 sensor activation Q score", "setting": "ppGalNAc-T3 sensor", "result": 0.63}, {"measurement": "T2 sensor activation Q score", "setting": "ppGalNAc-T2 sensor", "result": 0.56}]}
{"smiles": "CCCc1cc(=O)[nH]c(SCC(N)=O)n1", "values": [{"measurement": "T3 sensor activation Q score", "setting": "ppGalNAc-T3 sensor", "result": -0.16}, {"measurement": "T2 sensor activation Q score", "setting": "ppGalNAc-T2 sensor", "result": -0.935}]}
{"smiles": "c1ccc(-c2cc3c(ccc4nonc43)nn2)cc1", "values": [{"measurement": "T3 sensor activation Q score", "setting": "ppGalNAc-T3 sensor", "result": 1.45}, {"measurement": "T2 sensor activation Q score", "setting": "ppGalNAc-T2 sensor", "result": -0.905}]}
{"smiles": "O=C(NCCCCc1ccccc1)C12CC3CC(CC(C3)C1)C2", "values": [{"measurement": "T3 sensor activation Q score", "setting": "ppGalNAc-T3 sensor", "result": 0.355}, {"measurement": "T2 sensor activation Q score", "setting": "ppGalNAc-T2 sensor", "result": -0.465}]}
